Assay results from patent US20260335398A1, “METHODS FOR TREATING PANCREATIC CANCER WITH A COMBINATION OF DES-METHYL PATEAMINE A AND A CLASS I HDAC INHIBITOR” (Baylor University, priority 2023, published 2026).
At least one structure is not confirmed: it was looked up by name or label, or the drawing left a doubt.

Legend:
[1] = test system: MIA PaCa-2 and KLM cells; assay: Cell proliferation with zotatifin on MIA PaCa-2 and KLM cells; format: cell-based
Experimental: Previous studies have reported that inhibitors of translation initiation prevent cell proliferation and reduce levels of critical oncoproteins such as MYC and cyclinD1. The effects of DMPatA, a novel inhibitor of eIF4A helicase, was evaluated on four PDAC cell lines. All cells were sensitive to treatment with IC50s ranging from 2.8 to 10 nM (FIG. 6A). […] The efficacy of another eIF4Ai, zotatifin (eFT226), was evaluated on MIA PaCa-2 and KLM cells.
Cell viability was determined using CellTiter-Glo® reagent (Promega, #G7570) following the manufacturer's instructions. Cells were seeded at […] in white 96-well plates and grown overnight. They were then treated and incubated at 37 °C with 5% CO2. After incubation, assay reagent was added, and luminescent signals were quantified using a microplate reader (PHERAstar® FS, BMG LABTECH, Ortenberg, Germany). Caspase-Glo 3/7 assay (Promega, #G8091) was also employed following the manufacturer's instructions to measure apoptosis.

[2] = test system: VGF and HBA2 loci; assay: DRIP-qPCR R-loop accumulation at VGF and HBA2 loci (FIG. 10A); format: cell-based; conditions: MIA PaCa-2, 6+3 hours
Experimental: FIG. 10A illustrates the fold increase in the percent of input values in DRIP-qPCR for the VGF, HBA2, and SNRPN loci in MIA PaCa-2 cells treated with or without the combination or single agents. Genomic DNA was treated in vitro with or without RNaseH1 before immunoprecipitation using S9.6 antibody. Treatment was for 6+3 hours (i.e., 6-hour romidepsin followed by 3-hour washout with 2 nM DMPatA (combo) or without). Statistical significance was determined by 3-way ANOVA, ***p value<0.001. This experiment confirms the formation of R-loops at the investigated gene loci.
Romidepsin-induced histone hyperacetylation leads to the accumulation of R-loops that can increase genome instability. Because treatment of cells with the combination increased global transcription and led to persistence of histone hyperacetylation, it was postulated the treatment could similarly enhance the formation of R-loops and contribute to cell death. R-loop accumulation was further confirmed using DRIP-qPCR. […]
DRIP assay was performed according to the method previously described (Sanz L A, Chédin F. High-resolution, strand-specific R-loop mapping via S9. 6-based DNA-RNA immunoprecipitation and high-throughput sequencing. Nature protocols. 2019; 14(6):1734). […] Quantitative PCR was performed at the R-loop positive loci VGF and HBA2 genes and R-loop negative locus SNRPN gene with the primers listed in Table 1.

[3] = test system: MIA PaCa-2 xenograft; assay: MIA PaCa-2 xenograft model of PDAC, tumor growth (FIG. 2A); format: in vivo, athymic nude mice; conditions: IP; romidepsin 0.75 mg/kg, DMPatA 0.075 mg/kg; once every four days 2 weeks, then every seven days 5-6 weeks
Excerpt: FIGS. 2A and 2B illustrate the results of a MIA PaCa-2 xenograft model of PDAC in male athymic nude mice. FIG. 2A compares tumor growth (mm^3) in mice treated with the indicated concentrations of combination, romidepsin and DMPatA using IP route and vehicles described in the materials and methods section below. FIG. 2B compares body weight (g) of mice treated with the combination and single agents following treatment. FIGS. 2C and 2D compare quantification of H3K9ac and c-MYC antibodies. Frozen sections from MIA PaCa-2 xenograft tumor tissues were subjected to immunohistochemical analysis using antibodies against H3K9ac, and c-MYC. Fluorescence images were captured using fluorescent microscopy and the fluorescent signal from H3K9ac and c-MYC antibodies were quantified. To quantify fluorescence intensity at least 500 cells per condition were measured for each antibody at 40× magnification. The median of the signal intensity is shown. Statistical significance was determined by one-way ANOVA using Tukey multiple comparisons test, ****p value<0.0001.
Animal studies were performed according to Institutional Animal Care and Use Committee (IACUC) protocol number AC-AABD2601. Following the establishment of initial dose levels for individual drugs, efficacy of the combination and single agents in a MIA PaCa-2 xenograft model was assessed at a tolerable dose and schedule. […]

CC(/C=C/C(C)=C/[C@@H]1Cc2nc(cs2)CC[C@@H](N)CC(=O)O[C@@H](C)C/C(C)=C/C=C\C(=O)O1)=C\CN(C)C [DMPatA, des-methyl pateamine A]
potency in suppressing proliferation, DMPatA vs zotatifin [1]: significantly greater potency
R-loop accumulation (percent of input, DRIP-qPCR) [2]: Increased R-loop accumulation
tumor volume [3]: regression in tumor volume
